The text below walks through data of paper PMC3511274.

Sequences of proteins named here, by UniProt entry; tags and fusion partners are left off.
UniProt Q04206: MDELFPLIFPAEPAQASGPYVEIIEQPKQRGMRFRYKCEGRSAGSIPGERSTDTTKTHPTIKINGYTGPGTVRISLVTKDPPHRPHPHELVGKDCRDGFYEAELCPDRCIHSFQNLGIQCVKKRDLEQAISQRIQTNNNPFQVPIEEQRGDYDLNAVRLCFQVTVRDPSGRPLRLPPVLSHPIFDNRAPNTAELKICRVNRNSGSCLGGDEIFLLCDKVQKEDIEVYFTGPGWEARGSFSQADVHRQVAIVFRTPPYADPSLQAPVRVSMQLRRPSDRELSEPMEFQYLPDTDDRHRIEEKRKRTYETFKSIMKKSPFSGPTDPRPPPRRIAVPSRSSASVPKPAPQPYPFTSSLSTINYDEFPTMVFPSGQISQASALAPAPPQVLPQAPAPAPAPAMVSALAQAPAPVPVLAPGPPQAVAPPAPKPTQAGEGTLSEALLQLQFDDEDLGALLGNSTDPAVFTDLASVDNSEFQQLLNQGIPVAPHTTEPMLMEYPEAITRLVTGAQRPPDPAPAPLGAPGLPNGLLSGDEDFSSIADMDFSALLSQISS
UniProt P49715: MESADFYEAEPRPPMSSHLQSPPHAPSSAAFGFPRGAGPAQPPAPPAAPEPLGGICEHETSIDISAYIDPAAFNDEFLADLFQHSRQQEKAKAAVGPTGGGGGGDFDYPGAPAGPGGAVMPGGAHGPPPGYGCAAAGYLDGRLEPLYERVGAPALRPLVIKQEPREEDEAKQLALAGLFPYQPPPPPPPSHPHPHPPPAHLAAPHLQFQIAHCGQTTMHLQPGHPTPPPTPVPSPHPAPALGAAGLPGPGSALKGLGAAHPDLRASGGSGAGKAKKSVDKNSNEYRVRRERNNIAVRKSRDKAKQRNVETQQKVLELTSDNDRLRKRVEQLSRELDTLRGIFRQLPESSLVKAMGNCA

Assay [1] concerns the target nuclear factor of Kappa B/P65 (human (endogenous in primary human hepatocytes)) (UniProt Q04206). As to the kind of experiment: co-IP; whole cell lysates of TNFα treated hepatocytes (1×10^6); lysis buffer with 0.4 M NaCl, diluted 1:1; 1 µg rabbit anti-P65 or mouse anti-CEBPα (or normal IgG) overnight, Protein G beads; washes with 0.2 M NaCl; immunoblot. A general note: Immunoblotting shows a protein as a band on a membrane.

Assay [2] deals with CCAAT/enhancer-binding protein alpha (human (endogenous in primary human hepatocytes)) (UniProt P49715). The description is as above.

Results are given in words; binding and its absence hold for the method and conditions named. Binding seen in cells or lysates may run through a third protein. Some results given as binding are weak or reduced against the parent protein; the word gives no strength.

Take “CCAAT/enhancer-binding protein alpha (from UniProt P49715 1-358)”: in assay [1], the binding result is “binds”.
In the case of “nuclear factor of Kappa B/P65 (from UniProt Q04206 1-551)”, in assay [2], the binding entry is on record as “binds”.
